In general, AC50 refers to the concentration at which the activity in the assay is half-maximal.

About 20 (0.8%) of roughly 2,400 compounds were called active.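 Rule for the calls: active = AC50 no more than ten times the highest tested concentration, or full inhibition at every dose giving a flat fit (cut at about 30 µM in these data); inconclusive = flat fit with activity between 30% and 70%, or poor-quality invalid fit; inactive = AC50 more than ten times the top tested dose.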 The list shows a part of the results. Bounds are passed on as bounds.

The experiment can be described thus: inhibitors of ADP-Glo detection reagents, dose response, artefact control for GSK-3a inhibitor project, biochemical, luminescence, cell-free, homogeneous (AID 463205).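 Note: kinase-free counter-screen against the ADP-Glo detection reagents only; potency is for inhibitors that reduce the luminescence signal.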 Particulars: 5 uM ADP. A general note: ADP-Glo turns the ADP formed in a reaction into a luminescent signal.
With `O=C1C(SCCO)=C(SCCO)C(=O)c2ccccc21`, the AC50 is inactive: > 30 µM. The result for `CC[n+]1c(/C=C/C=C/N(C(C)=O)c2ccccc2)sc2ccccc21` reads inactive: > 30 µM; that for `O=C(Nc1cccc(F)c1)C1CCCN1S(=O)(=O)c1cccc2cccnc12` (stereo unspecified), inactive: > 30 µM; that for `C[C@@H]1O[C@@H](O[C@H]2[C@H](O)[C@@H](O)[C@H](Oc3c(-c4ccc(O)c(O)c4)oc4cc(O)cc(O)c4c3=O)O[C@@H]2CO)[C@H](O)[C@H](O)[C@H]1O`, inactive: > 30 µM. The figure for `Cc1cccc(NC(=O)c2sc(Cl)nc2-c2ccccc2)c1` is inactive: > 30 µM; for `Cc1noc(C)c1COc1ccc2ccc(=O)oc2c1` it is inactive: > 30 µM.

As to `CCc1cc(C(=O)c2ccc(OC)cc2)c(NC(=O)COCC(=O)O)s1`, the AC50 is inactive: > 30 µM.

Take `O=[N+]([O-])c1ccc(NCCCN2CCOCC2)c([N+](=O)[O-])c1`: the AC50 is inactive: > 30 µM. The result for `CCC(=O)/C=C1/Sc2ccc(OC)cc2N1CC` reads inactive: > 30 µM; that for `CCOC(=O)c1cc(CC)sc1NC(=O)COC(=O)c1ccccn1`, inactive: > 30 µM. Turning to `COc1ccc2nc(NC(=O)C3CCCN3S(=O)(=O)c3ccc(C)cc3)sc2c1` (stereo unspecified), the AC50 was inactive: > 30 µM. The result for `Cc1nc(SCC(=O)NCC2CCCO2)c2c3c(sc2n1)CCCC3` (stereo unspecified) reads inactive: > 30 µM. The figure for `COc1ccc(-c2ccccc2)c2oc(-c3ccco3)cc(=O)c12` is inactive: > 30 µM; for `CC(C)=CCc1cc(-c2oc3cc(O)cc(O)c3c(=O)c2O)ccc1O` it is inactive: > 30 µM.

With `Cc1cccc2cc(C#N)c(NCCNC(=S)NCCCN3CCOCC3)nc12`, the AC50 is inactive: > 30 µM. With `COc1cccc(/C=C2\SC(=O)NC2=O)c1OCc1ccc(C(=O)O)cc1`, the AC50 is inactive: > 30 µM. The figure for `CCOC(=O)c1c(NC(=O)C2CC2)sc(C)c1CC` is inactive: > 30 µM. On to `NC(=O)NCC12CC3CC(CC(C3)C1)C2`, for which the AC50 is inactive: > 30 µM. In the case of `COc1cc(C2c3sc(=O)[nH]c3SC3C4CCC(C4)C23)ccc1O` (stereo unspecified), the AC50 was inactive: > 30 µM.

For the molecule `CCc1ccc(NC(=O)N[C@H](C(=O)O)C(C)CC)cc1` (stereo partly specified), the AC50 is inactive: > 30 µM.

For `CS(=O)(=O)N1CCN(c2ccnc3cc(Cl)ccc23)CC1`, the AC50 was inactive: > 30 µM. The result for `O=C(CSc1nnc(-c2ccncc2)s1)Nc1ccccc1` reads inactive: > 30 µM; that for `COc1ccc(NC(=O)CNc2cccc(S(=O)(=O)N3CCCCCC3)c2)c([N+](=O)[O-])c1`, inactive: > 30 µM.

For `CC(C)CCSc1cc(NCCO)c([N+](=O)[O-])c2nonc12`, the AC50 was inactive: > 30 µM. The figure for `Oc1ccc2c(c1)oc1cc(O)ccc12` is inactive: > 30 µM; for `COc1cccc(/C=C2\Oc3ccc(O)cc3C2=O)c1O` it is inactive: > 30 µM; for `COC(=O)CSc1nc(NCC(C)C)nc(N2CCOCC2)n1` it is inactive: > 30 µM.

Take `Cc1nc2sc(C(N)=O)c(N)c2c2c1CCCC2`: the AC50 was inactive: > 30 µM. For the molecule `NCc1cccc(CNc2ccc([N+](=O)[O-])cc2C(N)=O)c1`, the AC50 is inactive: > 30 µM. In the case of `COC(=O)C1=C(C)N(C)C(=O)/C1=C\c1ccco1`, the AC50 is inactive: > 30 µM. The figure for `CCOCCCN(C(=O)c1snc(C(N)=O)c1N)C(C(=O)NC1CCCC1)c1ccc(O)cc1` (stereo unspecified) is inactive: > 30 µM; for `CCCCCCCCCCOC(=O)Cn1c(COc2ccc(Cl)cc2)[n+](C)c2ccccc21` it is inactive: > 30 µM.

Consider `Nn1cnnc1N/N=C\c1ccc(-c2ccccc2[N+](=O)[O-])o1`, for which the AC50 was inactive: > 30 µM.

For `Cc1sc2ncnc(SCC(=O)NCC3CCCO3)c2c1C` (stereo unspecified), the AC50 is inactive: > 30 µM. The result for `Cc1ccc(C(=O)Nc2cccc(C(=O)NC3CCCCC3)c2)cc1` reads inactive: > 30 µM. The result for `CCOC(=O)c1nnn(-c2nonc2N)c1COc1ccc(F)cc1` reads inactive: > 30 µM. Regarding `COc1ccc(-c2cc(=O)oc3cc(O)ccc23)cc1`, the AC50 is inactive: > 30 µM. The result for `CC(C)(C)NC(=O)/C(=C\C=C\c1ccccc1)NC(=O)c1ccc([N+](=O)[O-])cc1` reads inactive: > 30 µM; that for `Cc1nc2cc(-c3ccccc3)ccc2o1`, inactive: > 30 µM. The figure for `O=C(NCCCn1ccnc1)C(=O)NC1CCCCC1` is inactive: > 30 µM.

`CCOC(=O)c1cnc2c(C)cc(Cl)cc2c1N1CCN(C)CC1`: the AC50 is inactive: > 30 µM. The figure for `CN(Cc1ccccc1)c1ncnc(N)c1[N+](=O)[O-]` is inactive: > 30 µM; for `Cc1ccc(-c2nnc3n2N=C(c2ccc(Br)cc2)CS3)cc1` it is inactive: > 30 µM. The figure for `Cc1ccc(N2C(S)=C(C#N)C(=O)NC2c2ccco2)cc1` (stereo unspecified) is inactive: > 30 µM; for `CCOC(=O)c1ccc(NC(=S)NCCc2ccccc2)cc1` it is inactive: > 30 µM; for `CCOC(=O)c1cc(-c2ccc(C)cc2)n(CCC(=O)NC(C)CC)c1C` (stereo unspecified) it is inactive: > 30 µM.

`Cc1cc2nc(-c3ccc(=O)[nH]c3)n(Cc3ccccc3)c2cc1C`: the AC50 was inactive: > 30 µM. The result for `CCN1C(=O)/C(=C2\SC(=S)N(c3c(C)n(C)n(-c4ccccc4)c3=O)C2=O)c2ccccc21` reads inactive: > 30 µM. The result for `O=C(COC(=O)c1cccc(S(=O)(=O)N2CCOCC2)c1)Nc1ccc(Cl)cn1` reads inactive: > 30 µM; that for `COc1cccc(CN2CCN(Cc3cc(OC)c(OC)cc3[N+](=O)[O-])CC2)c1`, inactive: > 30 µM; that for `Cc1occc1C(=O)N/N=C/c1ccc(N(C)C)cc1`, active: 28.1 µM.

For the molecule `COc1cc(SC)ccc1C(=O)Nc1nc(C)cc(C)n1`, the AC50 is inactive: > 30 µM. As for `CN(C)C=Nc1ncc2c3ccccc3n(CCN(C)C)c2c1C#N`, the AC50 was inactive: > 30 µM.

With `Cc1c(CCOC(=O)c2ccc(Cl)cc2Cl)sc[n+]1CC(=O)c1ccccc1`, the AC50 is inactive: > 30 µM.

With `Cc1ccc(N=c2oc3cc(O)ccc3cc2C(N)=O)cc1`, the AC50 was inactive: > 30 µM. The result for `COC(=O)CNc1nc(Cl)nc(NC2CCCCC2)n1` reads inactive: > 30 µM; that for `CC(C)(C)NC(=O)CSc1ncccc1-c1nc2ccccc2[nH]1`, inactive: > 30 µM. The result for `COc1ccc(-c2cn3cccnc3n2)cc1NC(=O)CC(C)C` reads inactive: > 30 µM; that for `O=C(Nc1cccc(-c2cnc3ccccc3n2)c1)c1ccncc1`, inactive: > 30 µM; that for `COc1ccc(C(=O)NCC(=O)N/N=C/C(C)=C/c2ccccc2)cc1OC`, inactive: > 30 µM. The result for `CCOC(=O)c1nnn(-c2nonc2N)c1COc1c(C=O)cccc1OC` reads inactive: > 30 µM; that for `O=C(c1ccco1)N(Cc1cccc([N+](=O)[O-])c1)c1ccc(Br)cc1`, inactive: > 30 µM. Regarding `COc1ccc(OC)c(C2CC(=O)N3CN(c4cccc(Cl)c4)CSC3=C2C#N)c1` (stereo unspecified), the AC50 was inactive: > 30 µM. The result for `COC(=O)c1c(NC(=O)COC(=O)c2ccccn2)sc(C)c1C` reads inactive: > 30 µM. The result for `CNc1c(C(=O)O)ccc2c1C(=O)c1ccccc1C2=O` reads inactive: > 30 µM; that for `COc1ccc2nc(NC(=O)C3CCN(S(=O)(=O)c4cnc[nH]4)CC3)sc2c1`, inactive: > 30 µM; that for `COc1ccc(/C=N/NC(=O)c2nnn(-c3nonc3N)c2CN(C)c2ccccc2)cc1`, inactive: > 30 µM. The result for `COc1cccc(Nc2nc(N)c([N+](=O)[O-])c(NCc3ccco3)n2)c1` reads inactive: > 30 µM.

For `Cc1ccc(/C=C2\Oc3c(ccc(O)c3CN3CCN(CCO)CC3)C2=O)cc1`, the AC50 was inactive: > 30 µM.

`COc1cc(-c2[nH]nc3c2C(c2ccoc2)C(C#N)=C(N)O3)cc(OC)c1OC` (stereo unspecified): the AC50 was inactive: > 30 µM. The result for `COc1cc2ncc(S(=O)(=O)c3ccccc3)c(N3CCCC(C)C3)c2cc1OC` (stereo unspecified) reads inactive: > 30 µM; that for `CCN(CC)c1nc(N)c([N+](=O)[O-])c(NCCO)n1`, inactive: > 30 µM.

For `CCCCSc1nc(N)c(C#N)c(-c2cccs2)c1C#N`, the AC50 was inactive: > 30 µM. The result for `C/C(=N/NC(=O)c1ccc(C)s1)c1ccncc1` reads inactive: > 30 µM.

For the molecule `O=c1[nH][nH]c(-c2ccccc2)c1C=Nc1ccc(OC(F)(F)F)cc1`, the AC50 is inactive: > 30 µM. The figure for `CCCCn1c(O)c(C=NCCCN(C)C)c(=O)[nH]c1=O` is inactive: > 30 µM.

Turning to `CCOC(=O)c1cc(C)sc1NC(=O)C1CCC1`, the AC50 is inactive: > 30 µM.

As for `COc1ccc(C(=O)c2sc(Nc3ccccc3)c(C(=O)Nc3ccc(OC)c(OC)c3)c2N)cc1`, the AC50 is inactive: > 30 µM.

Regarding `COc1ccccc1NC(=O)CSc1nnc(-c2ccncc2)o1`, the AC50 was inactive: > 30 µM.

In the case of `CN(C)CCCNS(=O)(=O)c1ccc(NC2CCCCCC2)c([N+](=O)[O-])c1`, the AC50 was inactive: > 30 µM. As for `CN(C)C(=O)c1ccc(NC(=O)c2cc(-n3cnnc3)ccc2Cl)cc1`, the AC50 is inactive: > 30 µM. On to `N#CC1=C(SCc2ccccc2)NC(=O)CC1c1ccco1` (stereo unspecified), for which the AC50 was inactive: > 30 µM.

Take `O=C(Nc1ccc(Cl)c([N+](=O)[O-])c1)c1ccc(NCCCN2CCOCC2)c([N+](=O)[O-])c1`: the AC50 is inactive: > 30 µM. The figure for `O=C(CNC(=S)N(Cc1ccccc1)Cc1cccnc1)NC1CCCCC1` is inactive: > 30 µM. The result for `S=C(Nc1cccc(Cl)c1)Nc1cccc2cnccc12` reads inactive: > 30 µM; that for `CC(C)c1nnc(NC(=O)CCN2C(=O)c3ccccc3C2=O)s1`, inactive: > 30 µM; that for `COc1ccc(OC)c(C(=O)c2c(C)oc3cc(Br)c(O)c(CN(C)C)c23)c1`, inactive: > 30 µM.

Turning to `Cc1oc2ccc(O)cc2c1C(=O)c1ccc(F)cc1`, the AC50 was inactive: > 30 µM. The result for `Cc1ccc(/C=N/NC(=O)c2nnn(-c3nonc3N)c2CN(C)C)o1` reads inactive: > 30 µM. The result for `CCOC(=O)c1nnn(-c2nonc2N)c1CN(CC)c1ccccc1` reads inactive: > 30 µM; that for `NC(=O)c1c(-c2cccs2)csc1N`, inactive: > 30 µM.

The record behind these values is PubChem BioAssay AID463205 (Broad Institute, 2010).
